Test systems include OR4B1 clone 1189; OR4C11 clone 1244; OR4C12 V283L clone 1155; OR4C15 clone 1337; OR4C15 clone 1449; OR4C3 clone 1284; OR4C3 clone 1480; OR4C46 K288R clone 1483; OR4C5 clone 1307; OR4D1 R54Q clone 1467; OR4D1 clone 1316; OR4D10 clone 1174; OR4D11 clone 1243; OR4D5 clone 1122; OR4D6 D96G clone 1225; OR4D9 clone 1217; OR4F14 A297T clone 1059.
Assay in all cases: odorant receptor activation (CRE luciferase / Renilla) (fold of no-odor wells); higher = more activation
What all share (conditions): 100 µM

Chains of the proteins cited; added tags and fusions are not shown. Chains listed by the source or under a name are the forms on record and can include a tag or linker.
OR4F14 A297T, as listed by the source, stated change not applied: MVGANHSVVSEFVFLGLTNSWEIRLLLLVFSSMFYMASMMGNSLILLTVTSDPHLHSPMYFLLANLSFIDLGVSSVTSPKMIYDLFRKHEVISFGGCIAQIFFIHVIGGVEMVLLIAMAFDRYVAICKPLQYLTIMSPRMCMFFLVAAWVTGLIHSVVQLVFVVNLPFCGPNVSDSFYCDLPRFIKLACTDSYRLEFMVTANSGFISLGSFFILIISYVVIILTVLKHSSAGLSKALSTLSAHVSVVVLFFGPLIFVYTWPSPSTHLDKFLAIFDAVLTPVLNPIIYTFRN

Assay [1] has as its system OR4C16 V25L/T76A/L259P clone 1237.
For assay [2], the system named is OR4D2 C97S/L187F clone 1285.
The test system of assay [3] is OR4E2 V118M/Q234R clone 1274.

“And” between values parts separate entries of the source, which are not always exact repeats. Equal values may be shown once. Some of the results follow. Each value is one well over the wells without odorant, computed here; the data are noisy.

Take `c1ccc(Oc2ccccc2)cc1` [diphenyl ether]: the odorant receptor activation in the assay on OR4B1 clone 1189 was 0.979; in the assay with OR4C11 clone 1244, 0.99; in the assay on OR4C12 V283L clone 1155, 1.02; in the assay with OR4C15 clone 1337 it was 0.904; in the assay on OR4C15 clone 1449, 1.08; in assay [1], 0.829. The odorant receptor activation was 1.4 with OR4C3 clone 1284; 0.978 with OR4C3 clone 1480; 1 in the assay with OR4C46 K288R clone 1483; 1.04 in the assay with OR4C5 clone 1307; 1.44 in the assay on OR4D1 R54Q clone 1467; 1.16 in the assay with OR4D1 clone 1316. Moreover, the odorant receptor activation in the assay with OR4D10 clone 1174 was found to be 0.855; in the assay on OR4D11 clone 1243 it was 1.28; in [2], 1.09; in the assay with OR4D5 clone 1122 it was 0.832; in the assay on OR4D6 D96G clone 1225, 1.21; with OR4D9 clone 1217, 0.833. Also, the odorant receptor activation is 1.24 in assay [3] and 0.939 in the assay with OR4F14 A297T clone 1059.

For the molecule `C=CC(C)(O)CCC=C(C)C` (stereo not given) [linalool], the odorant receptor activation in the assay on OR4B1 clone 1189 came out at 0.977; with OR4C11 clone 1244 it was 0.844; in the assay on OR4C12 V283L clone 1155 it was 1.35; in the assay on OR4C15 clone 1337, 0.954; in the assay with OR4C15 clone 1449, 1.14; in assay [1], 1.07. Moreover, the odorant receptor activation in the assay with OR4C3 clone 1284 was 1.11; with OR4C3 clone 1480, 0.816; with OR4C46 K288R clone 1483, 1.32; in the assay with OR4C5 clone 1307, 0.9; in the assay with OR4D1 R54Q clone 1467 it was 1.55; in the assay on OR4D1 clone 1316 it was 0.779. Besides, the odorant receptor activation stood at 0.816 in the assay with OR4D10 clone 1174; 0.942 with OR4D11 clone 1243; 1.12 in assay [2]; 0.97 with OR4D5 clone 1122; 0.871 with OR4D6 D96G clone 1225; 1.02 in the assay on OR4D9 clone 1217. The odorant receptor activation in [3] was determined as 1.09; in the assay with OR4F14 A297T clone 1059, 0.991.

In the case of `O=C1CCCCCCCCCCCCCCO1` [pentadecalactone], the odorant receptor activation is 0.648 in the assay on OR4B1 clone 1189; 0.751 in the assay with OR4C11 clone 1244; 0.605 with OR4C12 V283L clone 1155; 0.86 in the assay on OR4C15 clone 1337; 1.32 in the assay with OR4C15 clone 1449; 0.969 in [1]. In addition, the odorant receptor activation in the assay with OR4C3 clone 1284 was 0.67; in the assay with OR4C3 clone 1480, 0.745; in the assay with OR4C46 K288R clone 1483 it was 0.76; with OR4C5 clone 1307 it was 0.815; in the assay with OR4D1 R54Q clone 1467, 0.786; with OR4D1 clone 1316 it was 0.773. The odorant receptor activation was determined as 0.603 in the assay with OR4D10 clone 1174; 0.792 with OR4D11 clone 1243; 0.55 in assay [2]; 0.958 with OR4D5 clone 1122; 1.25 in the assay with OR4D6 D96G clone 1225; 1.34 with OR4D9 clone 1217. The odorant receptor activation in [3] came to 0.671; in the assay on OR4F14 A297T clone 1059, 0.835.

Take `CC(C)CC(=O)O` [isovaleric acid]: the odorant receptor activation was found to be 1.19 in the assay with OR4B1 clone 1189; 1 in the assay on OR4C11 clone 1244; 1.4 in the assay with OR4C12 V283L clone 1155; 1.05 with OR4C15 clone 1337; 0.737 in the assay with OR4C15 clone 1449; 1.2 in [1]. The odorant receptor activation in the assay on OR4C3 clone 1284 turned out to be 0.777; in the assay with OR4C3 clone 1480, 0.826; with OR4C46 K288R clone 1483 it was 1.05; in the assay with OR4C5 clone 1307, 0.844; with OR4D1 R54Q clone 1467, 1.05; in the assay on OR4D1 clone 1316 it was 0.674. For the same molecule, the odorant receptor activation with OR4D10 clone 1174 was found to be 0.882; in the assay with OR4D11 clone 1243, 0.701; in [2] it was 0.724; in the assay on OR4D5 clone 1122, 0.982; in the assay on OR4D6 D96G clone 1225, 1.21; in the assay on OR4D9 clone 1217, 1.18. The odorant receptor activation came out at 0.928 in assay [3] and 0.876 with OR4F14 A297T clone 1059.

For `C=CCc1ccc(OC)c(OC)c1` [eugenol methyl ether], the odorant receptor activation with OR4B1 clone 1189 came out at 1.46; with OR4C11 clone 1244 it was 2.03; with OR4C12 V283L clone 1155, 1.68; in the assay with OR4C15 clone 1337, 1.51; with OR4C15 clone 1449, 1.73; in [1], 1.46. Further, the odorant receptor activation in the assay on OR4C3 clone 1284 amounted to 1.68; in the assay with OR4C3 clone 1480 it was 1.28; in the assay with OR4C46 K288R clone 1483, 1.32; in the assay with OR4C5 clone 1307, 1.62; in the assay on OR4D1 R54Q clone 1467 it was 1.44; in the assay on OR4D1 clone 1316 it was 1.5. Moreover, the odorant receptor activation was 1.22 in the assay on OR4D10 clone 1174; 1.58 in the assay with OR4D11 clone 1243; 1.49 in [2]; 2.02 in the assay on OR4D5 clone 1122; 1.57 in the assay on OR4D6 D96G clone 1225; 1.2 in the assay on OR4D9 clone 1217. In addition, the odorant receptor activation in assay [3] amounted to 1.85; with OR4F14 A297T clone 1059 it was 1.4.

As to `CCCCCCCOC(C)=O` [heptyl acetate], the odorant receptor activation with OR4B1 clone 1189 was 0.818; in the assay on OR4C11 clone 1244, 0.957 and 1.17; with OR4C12 V283L clone 1155, 0.861; in the assay with OR4C15 clone 1337, 1.15 and 0.993; in the assay with OR4C15 clone 1449, 1.09; in assay [1], 0.855. Also, the odorant receptor activation with OR4C3 clone 1284 is 0.488 and 1.04; in the assay with OR4C3 clone 1480, 0.93 and 1.44; in the assay on OR4C46 K288R clone 1483 it was 1.02 and 1.51; in the assay on OR4C5 clone 1307, 0.985 and 1.09; in the assay with OR4D1 R54Q clone 1467, 0.84 and 1.37; in the assay on OR4D1 clone 1316 it was 1.22 and 0.856. In addition, the odorant receptor activation in the assay with OR4D10 clone 1174 was 0.956; with OR4D11 clone 1243, 1.16 and 0.783; in assay [2], 0.878 and 1.21; in the assay on OR4D5 clone 1122, 1.19; in the assay with OR4D6 D96G clone 1225 it was 0.935; in the assay with OR4D9 clone 1217 it was 0.883. Besides, the odorant receptor activation is 1.23 and 1.4 in assay [3]; 0.951 with OR4F14 A297T clone 1059.

In the case of `COc1cc(C=O)ccc1O` [vanillin], the odorant receptor activation came to 0.66 in the assay with OR4B1 clone 1189; 0.979 with OR4C11 clone 1244; 0.95 with OR4C12 V283L clone 1155; 1.02 in the assay with OR4C15 clone 1337; 1.05 with OR4C15 clone 1449; 0.75 in assay [1]. Also, the odorant receptor activation in the assay with OR4C3 clone 1284 was determined as 1.12; in the assay with OR4C3 clone 1480, 0.978; in the assay with OR4C46 K288R clone 1483 it was 0.998; with OR4C5 clone 1307 it was 1.33; in the assay with OR4D1 R54Q clone 1467 it was 0.97; in the assay on OR4D1 clone 1316 it was 1.04. In addition, the odorant receptor activation in the assay on OR4D10 clone 1174 was 1.05; in the assay on OR4D11 clone 1243 it was 0.932; in assay [2] it was 0.869; in the assay with OR4D5 clone 1122 it was 1.22; in the assay on OR4D6 D96G clone 1225, 1.26; with OR4D9 clone 1217 it was 1.28. Besides, the odorant receptor activation in assay [3] was found to be 1.3; in the assay with OR4F14 A297T clone 1059 it was 0.904.

The record behind these values is the odorant receptor screen of Mainland et al. (2015).
